# Results: PubChem BioAssay AID504834 (National Center for Advancing Translational Sciences (NCATS), 2011)
# The whole screen tested about 320,000 compounds, of which about 22,000 (6.9%) were called active. This list was built around the results that the source calls inconclusive (neither active nor inactive); the mix of calls is not that of the screen. The call rests on the fitted dose curve; in most records, active means well fitted inhibition curve with a large enough effect; inconclusive means small, poorly fitted or top-dose-only effect, or another doubt; inactive means no such curve, though single readings can be large or run the other way. A potency beside an inconclusive call is a rough fit, not a confirmed value.
# Experiment: Primary qHTS for delayed death inhibitors of the malarial parasite plastid, 96 hour incubation
# Conditions: P. falciparum luciferase reporter growth; series mostly up to 28.7 µM; activity change, negative = inhibition: at the top concentration
# In short: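 Cell-based qHTS: luciferase-tagged P. falciparum in erythrocytes (2% hematocrit, 0.05% parasitemia final) incubated with compounds for 96 hours, 37 C, 5% CO2; luciferase detection reagent then added and luminescence measured.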
# On the % scale 0 is the no-effect control and ±100 the full control effect; potency means the concentration at half of the fitted maximal effect.
SMILES,"activity change, negative = inhibition",Potency
CC(=O)Nc1c2c(nn1-c1ccccc1)CSC2,inactive: 31%,–
Cc1ccccc1-c1cc(C(=O)N2CCCC2)c2ccccc2n1,inactive: 19%,–
Cc1ccc(CS(=O)(=O)CC(C)(O)c2ccc(Cl)cc2)cc1 (stereo not given),inactive: -2.68%,–
CCOC(=O)[C@H]1[C@H]2COc3ccc(Br)cc3[C@@H]2N2C(=O)c3ccc(Cl)cc3NC(=O)[C@@]12C,–,"inconclusive: 0.928 µM [inhibitor, full curve, poor fit]"
COC(=O)c1ccc(CSc2nnc(Nc3ccc(OC)cc3)s2)o1,–,"inconclusive: 1.85 µM [inhibitor, full curve, poor fit]"
CCc1ccc2nc(/N=C(\N)NC(=O)c3ccccc3)nc(C)c2c1,–,active: 10.4 µM
COc1cc(/C=N/NC(=S)NC2CC3C=CC2C3)cc(OC)c1OC (stereo not given),–,active: 2.94 µM
COc1ccc(OC)c(CCNC(=O)CCc2nnc3ccc(N4CCCC4)nn23)c1,–,"inconclusive: 18.5 µM [inhibitor, single point]"
O=C(Nc1ccc(S(=O)(=O)N2CCOCC2)cc1)c1cccc(Br)c1,inactive: -12.3%,–
C/C(=N\NC(=O)c1cccc(Cl)c1)c1cccc(NC(=O)c2ccco2)c1,–,active: 11.7 µM
CC(NCCCOc1cccc2ccccc12)c1ccccc1 (stereo not given),–,"inconclusive: 18.5 µM [inhibitor, single point]"
O=C(Nc1ccc(F)cc1F)c1cc2ccccc2oc1=O,inactive: 104%,–
CC(O)(CS(=O)(=O)Cc1ccccc1)c1ccccc1Cl (stereo not given),inactive: 24.2%,–
Cc1ccc(S(=O)(=O)NCC(=O)N(CC(=O)NCC2CCCO2)CC2CCCO2)cc1 (stereo not given),–,"inconclusive: 0.329 µM [inhibitor, full curve]"
COc1ccc(C2N(S(=O)(=O)c3ccc(C)cc3)CCN2S(=O)(=O)c2ccc(C)cc2)cc1,–,"inconclusive: 10.4 µM [inhibitor, partial curve, poor fit]"
COc1ccc(-c2nc(C(F)(F)F)c(OC)o2)cc1OC,inactive: 0.189%,–
COCCCNC(=O)c1c(N)n(-c2ccc(S(N)(=O)=O)cc2)c2nc3ccccc3nc12,inactive: 43%,–
CC(C)(C)n1nnnc1C(c1ccc(Cl)cc1)N1CCCc2ccccc21 (stereo not given),inactive: 32.6%,–
CC(=O)c1ccc(-c2ccc(C(=O)N(C)Cc3nc4ccccc4c(=O)[nH]3)o2)cc1,–,"inconclusive: 16.5 µM [inhibitor, single point]"
O=C(COc1cccc2ccccc12)NNC(=O)Nc1ccccc1,–,"inconclusive: 0.37 µM [inhibitor, partial curve, poor fit]"
Cc1ccc(NS(=O)(=O)c2ccc3c(c2)CCN3C(=O)CCC(=O)O)cc1Cl,–,"inconclusive: 18.5 µM [inhibitor, single point]"
COc1cccc(-c2cc(C(F)(F)F)nc(-n3cc(Cl)cn3)n2)c1,–,"inconclusive: 16.5 µM [inhibitor, single point]"
Cc1ccc(NC(=O)c2ccc(COc3ccc4c(c3)CCC4)cc2)c(C)c1,–,"inconclusive: 18.5 µM [inhibitor, single point]"

SMILES,"activity change, negative = inhibition",Potency
COc1ccc(-c2ccc(SCC(=O)c3ccc(F)cc3)nn2)cc1OC,–,"inconclusive: 9.28 µM [inhibitor, partial curve, poor fit]"
O=C(NN=C1C2CC3CC(C2)CC1C3)c1ccncc1,–,"inconclusive: 18.5 µM [inhibitor, single point]"
Cc1ccc2nc(N(CCCN(C)C)C(=O)CCc3ccccc3)sc2c1,–,"inconclusive: 10.4 µM [inhibitor, single point]"
CCc1ccccc1NC(=O)NNC(=O)CCc1ccccc1,–,"inconclusive: 13.1 µM [inhibitor, single point]"
COc1cc(C(=O)O/N=C2\C=CC(=O)C(C)=C2)cc(OC)c1OC,–,"inconclusive: 0.0586 µM [inhibitor, full curve, poor fit]"
CCOC(=O)C1=C(NC(=O)c2ccc(Br)o2)Nc2ccccc2N=C1,–,active: 1.85 µM
CC(=O)OCc1nc2sc3c(c2c(=O)[nH]1)CCCC3,inactive: -10.5%,–
CCCOc1cccc(-c2nc3ccccc3c(=O)o2)c1,–,"inconclusive: 10.4 µM [inhibitor, single point]"
COCCN1C(=O)N[C@@H](c2ccc(Br)cc2)C(C(C)=O)=C1C,–,"inconclusive: 11.7 µM [inhibitor, partial curve, poor fit]"
Cc1cc(C(=O)CSc2nc3ccccc3[nH]2)c(C)n1CC1CCCO1 (stereo not given),inactive: -23.4%,–
CCNc1nc(ON=C(C)C)nc(N(C)C)n1,–,"inconclusive: 18.5 µM [inhibitor, single point]"
O=C1CC(N2CCSCC2)C(=O)N1c1ccccc1 (stereo not given),–,"inconclusive: 18.5 µM [inhibitor, single point]"
O=C(Nc1ccccc1)C1=C[C@@H](C2CCCCC2)C[C@@H](OCc2ccc(CO)cc2)O1,–,"inconclusive: 3.7 µM [inhibitor, full curve]"
O=C(NCc1ccccc1)c1ccc(NS(=O)(=O)c2cccs2)cc1,inactive: 21.6%,–
COc1ccc(Oc2nc(-c3cccnc3)nc3ccccc23)cc1,–,"inconclusive: 18.5 µM [inhibitor, single point]"
Cc1ccc(-c2nn(-c3ccccc3)cc2/C=C(\C#N)C(=O)NCc2ccccc2)cc1,inactive: 44.4%,–
COc1ccccc1Nc1nc(-c2sc(NC(=O)C(C)(C)C)nc2C)cs1,–,active: 11.7 µM
CC(NC(=O)c1ccc(NC(=O)CC2SC(N3CCCC3)=NC2=O)cc1)c1ccc(F)cc1 (stereo not given),–,"inconclusive: 11.7 µM [inhibitor, single point]"
CCOc1cc(/C=N/NC(=O)CSc2nnc(C)s2)ccc1OCc1ccccc1Cl,–,"inconclusive: 13.1 µM [inhibitor, partial curve, poor fit]"
COc1ccccc1N(CC(=O)NC1CCCC1)C(=O)CCCC(=O)Nc1ccccn1,–,"inconclusive: 10.4 µM [inhibitor, single point]"
CCC(C(=O)O)n1c(C(F)(F)F)nc2ccccc21 (stereo not given),–,"inconclusive: 13.1 µM [inhibitor, single point]"
S=C(c1cn(Cc2ccccc2)c2ccccc12)N1CCOCC1,–,"inconclusive: 20.8 µM [inhibitor, partial curve, poor fit]"

# Of the compounds above, these contain a CF3 group.
SMILES,"activity change, negative = inhibition",Potency
COc1ccc(-c2nc(C(F)(F)F)c(OC)o2)cc1OC,inactive: 0.189%,–
COc1cccc(-c2cc(C(F)(F)F)nc(-n3cc(Cl)cn3)n2)c1,–,"inconclusive: 16.5 µM [inhibitor, single point]"
CCC(C(=O)O)n1c(C(F)(F)F)nc2ccccc21 (stereo not given),–,"inconclusive: 13.1 µM [inhibitor, single point]"
